Here are results for 2 compounds from patent US20220030866A1, “CONJUGATES OF AUXIN ANALOGS” (The State of Israel, Ministry of Agriculture & Rural …, priority 2019, published 2022).

The data set can be described thus: endogenous auxins and metabolites in Eucalyptus grandis cuttings by LC-MS. Particulars: treatment with IBA alone or IBA and compound. The data set is classed as in vivo.

Turning to `COC(=O)[C@H](Cc1c[nH]c2ccccc12)NC(=O)COc1ccc(Cl)cc1` [Compound 1t, 4-CPA-L-Trp], the “IBA levels in leaves” value stood at 15 ng/gram, the “time at which IAA levels in the cutting base peaked” value was 24 h and the “time at which IBA levels peaked” value is 6 h.
On the same counts, the results for `O=C(O)CCCc1c[nH]c2ccccc12` [IBA, indole-3-butyric acid, reference compound] are 5 ng/gram, 6 h and 6 h.
